No constants are given. Whether binding was seen depends on the method and setting.
Biological target: T1, full-length recombinant human CTGF/CCN2 (human, UniProt P29279 27-349)
T1 construct: connective tissue growth factor (CTGF/CCN2), human, full-length recombinant; also called connective tissue growth factor; recombinant CTGF; source: bought: R&D systems (cat#9190-CC)
T1 sequence (looked up): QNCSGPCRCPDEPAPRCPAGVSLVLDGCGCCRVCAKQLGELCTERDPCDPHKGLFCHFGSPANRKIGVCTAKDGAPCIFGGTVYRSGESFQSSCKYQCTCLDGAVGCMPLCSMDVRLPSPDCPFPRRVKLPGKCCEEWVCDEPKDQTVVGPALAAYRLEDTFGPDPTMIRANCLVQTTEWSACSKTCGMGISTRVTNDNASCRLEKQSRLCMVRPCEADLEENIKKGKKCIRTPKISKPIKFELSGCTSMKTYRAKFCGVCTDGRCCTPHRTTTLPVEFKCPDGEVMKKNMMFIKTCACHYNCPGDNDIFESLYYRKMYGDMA
Assay: ELISA; plate wells coated with recombinant human CTGF; FAM-peptide in 0.05% Casein/PBST overnight at 4 °C, two peptide concentrations; alone or with excess unlabeled DAG (0.6 mM); detected with anti-FITC HRP antibody, absorbance at 450 nm; both purified

binding: no binding
Binder: CRKQGEAKC (5(6)-carboxyfluorescein (FAM) at the N-terminus) [FAM-labeled control peptide (…)]
